Reference: PMC12109978
These are yes or no findings as the source states them, for the method shown. A result given as binding can be weak or reduced; the word gives no strength.

Key:
[1] = target: T1, human tropomodulin 4 (Tmod4) (human) (UniProt Q9NZQ9); assay: SEC; Superose 6 Increase 10/300 GL, 50 mM HEPES-Na pH 7.3, 150 mM NaCl, 1 mM DTT, 0.5 mL/min, 280 nm; 30 µM Tpm and Tmod1, or 26 µM Tpm and 13 µM Tmod4; single proteins and mixtures; both purified
T1 sequence: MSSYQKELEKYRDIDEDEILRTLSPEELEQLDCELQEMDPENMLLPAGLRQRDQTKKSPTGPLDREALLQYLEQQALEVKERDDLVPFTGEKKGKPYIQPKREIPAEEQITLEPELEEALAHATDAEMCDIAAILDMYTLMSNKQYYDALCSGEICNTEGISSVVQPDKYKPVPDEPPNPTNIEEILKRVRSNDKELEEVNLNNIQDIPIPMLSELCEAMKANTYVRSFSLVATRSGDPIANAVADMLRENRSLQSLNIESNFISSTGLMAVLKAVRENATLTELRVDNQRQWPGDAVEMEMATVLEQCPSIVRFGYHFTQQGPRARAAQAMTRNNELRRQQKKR

[2] = target: T1, human tropomodulin 4 (Tmod4) (human); assay: cross-linking; glutaraldehyde 0.002% or 0.008%, 30 mM HEPES pH 7.3, 200 mM NaCl, 30 °C, 15 and 60 min; Tpm 0.2 mg/mL, Tmod 0.12 mg/mL; SDS-PAGE in 12.5% gel; both purified

| binding [1] | binding [2] | Substance |
| --- | --- | --- |
| binds | binds | human tropomyosin Tpm1.1 with Ala-Ser N-terminal extension |
| binds | binds | human tropomyosin Tpm1.2 with Ala-Ser N-terminal extension |
